Results reported in article PMC6739472.
These are yes or no findings as the source states them, for the method shown. Binding seen in cells or lysates may run through a third protein. Some results given as binding are weak or reduced against the parent protein; the word gives no strength.

Chains of the proteins cited; added tags and fusions are not shown.
UniProt Q9Y4B6: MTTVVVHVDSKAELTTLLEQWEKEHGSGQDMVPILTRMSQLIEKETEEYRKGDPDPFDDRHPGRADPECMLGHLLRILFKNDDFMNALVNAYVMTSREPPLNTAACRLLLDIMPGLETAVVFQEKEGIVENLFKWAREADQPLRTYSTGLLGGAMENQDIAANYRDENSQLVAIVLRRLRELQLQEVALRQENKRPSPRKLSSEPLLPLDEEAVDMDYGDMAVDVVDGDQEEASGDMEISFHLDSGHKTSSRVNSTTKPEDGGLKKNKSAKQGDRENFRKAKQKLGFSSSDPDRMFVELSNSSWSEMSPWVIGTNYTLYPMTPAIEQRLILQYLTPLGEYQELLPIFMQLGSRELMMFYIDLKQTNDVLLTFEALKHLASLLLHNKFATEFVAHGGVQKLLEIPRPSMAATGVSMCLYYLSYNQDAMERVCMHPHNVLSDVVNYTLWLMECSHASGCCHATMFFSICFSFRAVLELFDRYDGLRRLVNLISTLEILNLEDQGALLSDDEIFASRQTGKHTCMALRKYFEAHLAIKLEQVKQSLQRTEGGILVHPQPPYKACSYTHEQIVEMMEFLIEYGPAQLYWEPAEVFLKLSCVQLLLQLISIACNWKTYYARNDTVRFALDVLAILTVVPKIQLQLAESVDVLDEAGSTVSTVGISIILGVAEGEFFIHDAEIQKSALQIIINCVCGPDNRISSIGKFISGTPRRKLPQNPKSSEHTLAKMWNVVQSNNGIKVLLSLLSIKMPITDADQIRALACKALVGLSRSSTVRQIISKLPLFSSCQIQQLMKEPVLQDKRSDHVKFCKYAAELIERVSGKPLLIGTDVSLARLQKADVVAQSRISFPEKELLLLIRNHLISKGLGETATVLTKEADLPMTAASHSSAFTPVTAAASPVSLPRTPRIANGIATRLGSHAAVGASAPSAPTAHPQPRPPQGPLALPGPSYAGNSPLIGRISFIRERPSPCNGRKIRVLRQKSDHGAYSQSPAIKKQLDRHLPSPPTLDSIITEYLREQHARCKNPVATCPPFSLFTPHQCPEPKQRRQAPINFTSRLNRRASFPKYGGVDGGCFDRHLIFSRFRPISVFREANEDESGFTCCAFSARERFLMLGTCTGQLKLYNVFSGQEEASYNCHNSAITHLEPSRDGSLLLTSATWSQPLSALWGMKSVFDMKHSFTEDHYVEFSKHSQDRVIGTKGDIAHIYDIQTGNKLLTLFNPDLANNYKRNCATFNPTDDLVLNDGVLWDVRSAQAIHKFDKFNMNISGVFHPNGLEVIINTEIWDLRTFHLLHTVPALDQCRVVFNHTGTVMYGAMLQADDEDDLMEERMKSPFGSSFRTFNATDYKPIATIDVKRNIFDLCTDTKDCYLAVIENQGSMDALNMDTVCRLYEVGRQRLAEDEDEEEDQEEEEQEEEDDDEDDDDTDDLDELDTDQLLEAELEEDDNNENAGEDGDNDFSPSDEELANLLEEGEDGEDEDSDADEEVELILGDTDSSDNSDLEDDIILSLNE
UniProt P12520: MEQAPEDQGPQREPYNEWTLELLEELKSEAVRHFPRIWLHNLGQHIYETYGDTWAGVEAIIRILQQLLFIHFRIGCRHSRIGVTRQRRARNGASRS
UniProt Q9C0K0: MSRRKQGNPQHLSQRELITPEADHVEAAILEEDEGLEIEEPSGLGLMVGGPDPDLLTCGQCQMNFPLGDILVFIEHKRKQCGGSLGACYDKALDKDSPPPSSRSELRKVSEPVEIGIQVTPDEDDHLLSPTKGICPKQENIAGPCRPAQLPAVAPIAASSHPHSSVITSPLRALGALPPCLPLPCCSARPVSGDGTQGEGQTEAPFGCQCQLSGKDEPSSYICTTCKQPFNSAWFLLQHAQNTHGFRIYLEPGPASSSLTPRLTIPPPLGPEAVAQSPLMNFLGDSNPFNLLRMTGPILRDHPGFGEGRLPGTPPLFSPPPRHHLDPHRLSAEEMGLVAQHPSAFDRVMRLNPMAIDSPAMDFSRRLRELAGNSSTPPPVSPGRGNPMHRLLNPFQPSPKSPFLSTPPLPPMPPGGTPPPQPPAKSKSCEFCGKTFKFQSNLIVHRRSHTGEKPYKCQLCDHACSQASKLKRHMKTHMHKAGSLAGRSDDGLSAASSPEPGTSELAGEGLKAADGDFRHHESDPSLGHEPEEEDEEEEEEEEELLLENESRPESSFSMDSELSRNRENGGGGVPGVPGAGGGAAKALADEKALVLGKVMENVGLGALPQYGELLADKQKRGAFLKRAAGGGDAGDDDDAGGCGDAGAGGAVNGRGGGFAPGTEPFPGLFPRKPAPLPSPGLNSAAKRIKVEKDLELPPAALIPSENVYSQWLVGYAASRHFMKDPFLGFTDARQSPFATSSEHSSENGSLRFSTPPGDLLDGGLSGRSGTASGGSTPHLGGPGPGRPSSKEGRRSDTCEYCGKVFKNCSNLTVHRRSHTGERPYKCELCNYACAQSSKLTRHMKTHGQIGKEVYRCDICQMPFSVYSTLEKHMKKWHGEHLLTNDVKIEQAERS
UniProt Q92769: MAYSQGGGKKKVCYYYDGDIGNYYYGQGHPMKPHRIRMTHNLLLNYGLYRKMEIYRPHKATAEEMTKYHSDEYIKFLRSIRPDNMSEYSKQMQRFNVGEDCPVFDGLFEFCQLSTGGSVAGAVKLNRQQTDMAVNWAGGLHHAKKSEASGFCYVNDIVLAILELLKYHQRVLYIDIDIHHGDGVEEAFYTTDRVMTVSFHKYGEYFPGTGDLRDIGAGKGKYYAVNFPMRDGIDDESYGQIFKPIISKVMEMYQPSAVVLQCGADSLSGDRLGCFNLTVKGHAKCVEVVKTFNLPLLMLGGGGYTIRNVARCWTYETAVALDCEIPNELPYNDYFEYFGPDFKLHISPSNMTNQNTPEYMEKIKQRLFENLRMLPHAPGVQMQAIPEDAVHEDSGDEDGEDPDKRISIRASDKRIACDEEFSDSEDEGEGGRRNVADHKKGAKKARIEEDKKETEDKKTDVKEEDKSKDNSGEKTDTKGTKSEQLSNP
UniProt Q16531: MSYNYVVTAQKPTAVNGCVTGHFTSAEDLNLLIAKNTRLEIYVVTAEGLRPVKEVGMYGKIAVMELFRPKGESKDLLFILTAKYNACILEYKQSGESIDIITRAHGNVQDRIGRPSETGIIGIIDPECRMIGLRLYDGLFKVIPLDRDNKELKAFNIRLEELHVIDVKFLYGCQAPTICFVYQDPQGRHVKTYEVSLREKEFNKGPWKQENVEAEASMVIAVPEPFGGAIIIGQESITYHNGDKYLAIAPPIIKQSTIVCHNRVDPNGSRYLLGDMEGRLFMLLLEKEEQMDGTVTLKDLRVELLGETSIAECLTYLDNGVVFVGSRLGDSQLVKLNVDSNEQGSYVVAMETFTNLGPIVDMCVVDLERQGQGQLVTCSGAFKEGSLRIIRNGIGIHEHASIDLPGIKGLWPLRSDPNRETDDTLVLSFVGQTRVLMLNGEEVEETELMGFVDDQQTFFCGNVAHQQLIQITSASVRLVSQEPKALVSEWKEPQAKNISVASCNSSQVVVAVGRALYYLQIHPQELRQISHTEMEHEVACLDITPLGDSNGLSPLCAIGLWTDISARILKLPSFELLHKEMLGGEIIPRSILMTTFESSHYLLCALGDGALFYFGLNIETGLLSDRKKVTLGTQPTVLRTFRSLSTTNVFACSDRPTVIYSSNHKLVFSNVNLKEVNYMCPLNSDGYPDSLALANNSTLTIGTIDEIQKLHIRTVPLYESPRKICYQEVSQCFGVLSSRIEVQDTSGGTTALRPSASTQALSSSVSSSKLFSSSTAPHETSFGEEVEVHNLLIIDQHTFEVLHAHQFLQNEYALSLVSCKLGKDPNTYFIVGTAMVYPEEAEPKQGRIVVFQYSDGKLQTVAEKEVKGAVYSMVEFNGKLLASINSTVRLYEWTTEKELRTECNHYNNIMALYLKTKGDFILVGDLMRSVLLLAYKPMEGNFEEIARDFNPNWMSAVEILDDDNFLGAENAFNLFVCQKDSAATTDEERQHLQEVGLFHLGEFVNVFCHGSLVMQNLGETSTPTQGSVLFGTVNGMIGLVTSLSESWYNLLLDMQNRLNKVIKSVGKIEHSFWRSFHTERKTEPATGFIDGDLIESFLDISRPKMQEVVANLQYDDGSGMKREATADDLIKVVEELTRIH

How the values were obtained:
FLAG-DCAF1 = FLAG-DCAF1 (UniProt Q9Y4B6); experiment: co-IP; nuclear extracts of transfected cells, two days post-transfection; immunoprecipitation of the tagged bait (Tap-CTIP2, HA-Vpr, or FLAG-DCAF1 with anti-FLAG), western blot; Figure 4E from MG132-treated cells; Figure 5C with strong overexpression of Tap-CTIP2
HA-Vpr wt (HIV-1) = HA-Vpr wt (HIV-1) (UniProt P12520); experiment: as above
GFP-DCAF1 = GFP-DCAF1 (UniProt Q9Y4B6); experiment: FRET or BRET; FLIM-FRET in transfected microglial cells; eGFP-DCAF1 donor, mRFP-CTIP2 acceptor; lifetime of GFP in the nuclear structures; with or without Vpr
[1] = target: CTIP2 (construct not stated) (UniProt Q9C0K0); experiment: co-IP; sequential immunoprecipitation: FLAG-DCAF1 complexes eluted with FLAG peptides from the first IP, then second IP targeting CTIP2; western blot
Tap-CTIP2 = Tap-CTIP2 (UniProt Q9C0K0); experiment: co-IP; nuclear extracts of transfected cells, two days post-transfection; immunoprecipitation of the tagged bait (Tap-CTIP2, HA-Vpr, or FLAG-DCAF1 with anti-FLAG), western blot; Figure 4E from MG132-treated cells; Figure 5C with strong overexpression of Tap-CTIP2

binding [1]	Substance	binding (FLAG-DCAF1)	binding (HA-Vpr wt (HIV-1))	binding (Tap-CTIP2)	also measured
–	CTIP2 (construct not stated) (from UniProt Q9C0K0 1-894)	binds	binds	–	–
–	RFP-CTIP2 (from UniProt Q9C0K0 1-894)	–	–	–	binding (GFP-DCAF1): binds
–	Tap-CTIP2 (from UniProt Q9C0K0 1-894)	–	binds	–	–
binds	HDAC2 (from UniProt Q92769 1-488) (enzyme)	binds	–	–	–
–	Myc-DDB1 (from UniProt Q16531 1-1140)	–	binds	binds	–
binds	FLAG-DCAF1 (from UniProt Q9Y4B6 1-1507)	–	–	binds	–
